Measurements as given in patent publication US20050032866A1, “The use of 5ht4 receptor antagonists in the prophylaxis or treatment of certain cardiovascular conditions” (priority 2000, published 2005).
The name of at least one read-out is uncertain.

Assay: plasma pharmacokinetics of SB 207266 on once daily oral dosing
Format: in vivo, human
Details: after oral administration

In the case of `CCCCN1CCC(CNC(=O)c2c3n(c4ccccc24)CCCO3)CC1` [SB 207266, N-[(1-^nbutyl-4-piperidinyl)methyl]-3,4-dihydro-2H-[1,3]oxazino[3,2-a]indole-10-carboxamide], the “time of maximum plasma concentration (Cmax)” value is reported as “about 2 hours”.
